Assay results as given in article PMC6220335, “Molecular structure of promoter-bound yeast TFIID” (Nature Communications, 2018).
No constants are given. Whether binding was seen depends on the method and setting. In cells and extracts the contact can be indirect. These calls come from enrichment with a bait or labelling near it, and not all partners need be listed.

B1: Taf12, subunit of Komagataella phaffii TFIID (natural protein, UniProt F2QSK7 1-609, looked up)
chain: MNQPPNQPQDNDSQVSSSGMQGGNSMNYSSSAPVNGAGQGPQPQQNSQGQNGKKPVGMQQAQIQLLARRYQLEMQKAHQLGPQTPQGAEHLQTATKIKHVLLSYQQQRQRQQGQVQGQGLSQPQGQNQAQGRVQQQTQGLSPDPGSHQGSPQFQQPHQVMMGSAQTAGTSIANPQAQSNISSQVSQMAAAKVNSASPPIPPKTVGTPTGTPVGTQPRGQVTIQQFQQVKSILEEFEKKLRTIEAAKRDQNLPEETLQKLLRQEAILKQRYAQTKATAYQMSQHLQRQQQALRAASAESAEVYVTGSASSPNMNVYNQQILTQQPQQQLQQQQLHQPQPQQPQPARQSPHLLIHQQQQQQQQQQQQQQQQQQHPVTHRPSNVSQTMPQPSQPLQSSTPSSAVGRNQSPGATPVTSVNAAAKPSPGTSSTSTLINQHILKPAPPPTEIPARLQVKPPQPAAMKIPNRPTLLGGSAISQPSLTTPVSIRPPPLEMEGDHVLQKRKLKELLRNVGADEGDGETVIDGDVEELLLDLADEFVTSVTSFACRLAKHRKVDNIDMRDVQLHLERNWNIRVPGYASDEIRSVRKFQPTAGYNQKVQGVAISKSVNKN
notes: Taf12, TFIID subunit of the yeast Komagataella phaffii (formerly Pichia pastoris); histone-fold domain modelled in the cryo-EM map; source: endogenous, K. phaffii nuclear extract; co-purified in TFIID by SBP-tagged Taf2 (streptavidin beads, sucrose gradient)
B2: Taf5, subunit of Komagataella phaffii TFIID (natural protein, UniProt F2QWD3 1-722, looked up)
chain: MKQEPGDSSDKSAPSGSITPQPKPPQQANVSNQQPQKPQQFSAADLNRIVLEYLNKKGYHKTESMLRMESSHIPAPPTNIPTPQTTNISRPTAPGRAPEYSDDPATIKRGYSILKSWCESSLDFYRPELEKFLYPVFVHCYLDLIARGYPSHAREFYDKFSKDHSVLHEYEISKLGGISLKEHLQENDVAKIFRSHKFKVLIGRTTFNLLLYFLNENDAVGGGVVLRLINQYIEPVITTEAIAVEREGELNLSEGIVELHTLNNTSIGGEQREISSVDAFNKKPVKLGKLQVDPEYSKELEAELKLKDEHEQAAQKKVSTTLLEEYRENFKVDPSDENNPSKDTLPLPLKSAQDLRNDIAMIQDSRAKIKLSAAQASLPSVCMYTFHNTNNDLTCLKFNDDSTMVASGFQDSFIKLWSIDGSPLRSLLKNDPYNQQNNDGVAVKGSRRLVGHSGAVYGVDFSPDNRYLISCSEDKTVRLWSLDTYTCLVSYKGHSSSVWDVKFSPMGHYFATASHDQTARLWSCDHIYPLRIFAGHLNDVDCVEFHPNSTYLFTGSSDKTARMWDIARGECVRVFMGHSGAINCLAVSPDGRWLASAGEDSVVCLWDISTGRRIKAMRGHGRSSIYSLAFSREGTVLVSTGADNSVRVWDVKKNTNSPSAQPEPINDVTAQGIQKKTEDLRRRKEIVATNDHMSVYFTKKTPVYTVHFTRRNLCLAGGVFGG
notes: Taf5, TFIID subunit of the yeast Komagataella phaffii (formerly Pichia pastoris); WD40 repeat and NTD (residues 99–243) modelled in the cryo-EM map; two copies in holo-TFIID; source: endogenous, K. phaffii nuclear extract; co-purified in TFIID by SBP-tagged Taf2 (streptavidin beads, sucrose gradient)
B3: Taf4, subunit of Komagataella phaffii TFIID (natural protein, UniProt F2QWX2 1-411, looked up)
chain: MSSTPDGSTPVDSGKRTSDQIDVGEYKRVKVERGNRSETVDSGLIDMSNSVGASLDIPTPDQLNPTNTGVQTPSLHQPGESISAHSLSLPGETSVGGSTGISRENTPQVRPDVSVSQSSSQLHQRNESFPGLSVSKSTTSLNKDTMFDNRKRLLGNNGANPNGQKSSDPEKLSDALTAAGVDLKEEESLLSQSTVIQQSRRQLSTLSSFLHPVHLATFMRRVMENNGLRNYVDHDTELLSYMSSACEGFMAGILTDSVILANHRKRPIKSKLKHSTTPRSDVSKVLRDIATKQKEREEQRVQKRVTLDIEGQEDDGKSKQDNEEVLHRAANATAMMMTSKSKKKKYSWMNADSGAQGGKTNSVLARGDSGIRYRDAREEPGLVLRDLLGALEGRRMCVANTVVKGYARMND
notes: Taf4, TFIID subunit of the yeast Komagataella phaffii (formerly Pichia pastoris); histone-fold domain modelled in the cryo-EM map; source: endogenous, K. phaffii nuclear extract; co-purified in TFIID by SBP-tagged Taf2 (streptavidin beads, sucrose gradient)
B4: Taf6, subunit of Komagataella phaffii TFIID (natural protein, UniProt F2QMA7 1-485, looked up)
chain: MSKNSQRSSIPTSHTLWSPSDTVKDAAESLGIFNLNEEAAKNLAMDIEYRIHEILDQASKFMRHGKRRTLHTSDIDRALKVLNLEPLYGYDVSRPLVFKEALVGAGQNLYYVDDDEVDFEKLINEPLPKVPRFSTFTAHWLAIEGVQPAIPQNPSPNDIKNILPINRGSMENMFSLINDEVKEDTNEEFTSTGPSVSSNISNQKQGLEVKPLVKHVLSRELQLYFDKIVEVLLNQEETKEAELLRNSALQSVRADPGLHQLVPYFIQFISETITKNLKNISLLSTMLELIYSLLMNESLFLEPYVHAIIPCILTLLLAKKIGNVDDELQKQQQLALRELSASLLERVIEDFGSSYSTLKPRITRTLLRAFVSVNNTTPGTQYGALLGLRGLGSEVIRIVVLGNVINWSSTFLEKLQQEDQVFLIDTLIETLRVLTKEGKLVKDMKTENGIDNERLKQRVGDLIADRIQACDDAQDIYWGIFFGEV
notes: Taf6, TFIID subunit of the yeast Komagataella phaffii (formerly Pichia pastoris); HEAT repeats (residues 213–486) and histone-fold domain modelled in the cryo-EM map; two copies in holo-TFIID; source: endogenous, K. phaffii nuclear extract; co-purified in TFIID by SBP-tagged Taf2 (streptavidin beads, sucrose gradient)
B5: Taf9, subunit of Komagataella phaffii TFIID (natural protein, UniProt F2QTW3 1-153, looked up)
chain: MTNEQAAIPRDVRLLHLIFATQNIYSYQDHVPLQLMDFAYRYTTGTLQDATIYSDHAHASGSHISNAGNAGTNAQLTTEDIRLAIAARTNYQFKPVPPKELLLELAAERNKKPLPAVIPTWGIRLPPEKYCLTGKDWVLEDEEEAVSYKKRKT
notes: Taf9, TFIID subunit of the yeast Komagataella phaffii (formerly Pichia pastoris); histone-fold domain modelled in the cryo-EM map; source: endogenous, K. phaffii nuclear extract; co-purified in TFIID by SBP-tagged Taf2 (streptavidin beads, sucrose gradient)
B6: Taf3, subunit of Komagataella phaffii TFIID (protein, UniProt F2QPA6 1-314)
chain: MPKSSFYFSYLRITIIQLLKSQGFDRCSNTVIDALTDTTIRFLGLLLEKTAKYTASRGESLDDVQIQDISEALTELKIITPCNLLDPYDVSPDNLQGIQNFESWFIGPYPDRARQVARPSKQYIAEVNESLDPSTQFRSKNRIPEYMNSFKKQEEQIDNTGDFPLDEDWIRFNLRVELKRNQAHDSKLKNSVLQPYISNVLEDVQRKNGVNGNGSTDKYATNYDFIITGPTPDKLMQYLPYINSDDEEDDDSYEEENEDSEDQDEDDGDRNNEHNKNDEYGNENQPEQTTPDFDYEEHNDEDDNRQKLKIRLNI
B7: Taf10, subunit of Komagataella phaffii TFIID (natural protein, UniProt F2QLJ9 1-217, looked up)
chain: MSTEKLFEDLDEDSLMQDVEGGVEGSMTIEEEPEPNDEKEAPHISMPSLPEYTRKDKTLEEILEMMEDEEFTPIIPDAVTDYYLAKNGFETSDIKIKRILALATQKFISDIAQDAYEYSRIRSSSSVYTSANPQARARQLVAGQQQQQQQQPQQQQQQQPQTGASQPAPTVGGSGGGGGGGGGTSTGTNNKVVLTMDDLRSALGEYGINVKRPNFYR
notes: Taf10, TFIID subunit of the yeast Komagataella phaffii (formerly Pichia pastoris); source: endogenous, K. phaffii nuclear extract; co-purified in TFIID by SBP-tagged Taf2 (streptavidin beads, sucrose gradient)

These binders were tested against Taf2 with C-terminal streptavidin-binding peptide tag, subunit of Komagataella phaffii TFIID (Komagataella phaffii) (UniProt F2QRH9) (assay: affinity purification with mass spectrometry; TFIID purified from K. phaffii nuclear extract by the SBP tag at the C-terminus of Taf2 (streptavidin beads, 250 mM potassium acetate, elution with 10 mM biotin, 10–30% sucrose gradient); SDS-PAGE and mass spectrometry of the purified complex).

binding, binds:
B1
B2
B3
B4
B5
B6
B7
